According to patent publication US20130288302A1:
Positions count from the first letter of the chain named. These are yes or no findings as the source states them, for the method shown. Some binding calls cover weakened binding; strength is not graded here. One block for each binder: values may come before it.

Amino acid sequences for entries named in this document (tags omitted). A change or cut given only in a name is not applied to a line headed by its entry.
UniProt P38570: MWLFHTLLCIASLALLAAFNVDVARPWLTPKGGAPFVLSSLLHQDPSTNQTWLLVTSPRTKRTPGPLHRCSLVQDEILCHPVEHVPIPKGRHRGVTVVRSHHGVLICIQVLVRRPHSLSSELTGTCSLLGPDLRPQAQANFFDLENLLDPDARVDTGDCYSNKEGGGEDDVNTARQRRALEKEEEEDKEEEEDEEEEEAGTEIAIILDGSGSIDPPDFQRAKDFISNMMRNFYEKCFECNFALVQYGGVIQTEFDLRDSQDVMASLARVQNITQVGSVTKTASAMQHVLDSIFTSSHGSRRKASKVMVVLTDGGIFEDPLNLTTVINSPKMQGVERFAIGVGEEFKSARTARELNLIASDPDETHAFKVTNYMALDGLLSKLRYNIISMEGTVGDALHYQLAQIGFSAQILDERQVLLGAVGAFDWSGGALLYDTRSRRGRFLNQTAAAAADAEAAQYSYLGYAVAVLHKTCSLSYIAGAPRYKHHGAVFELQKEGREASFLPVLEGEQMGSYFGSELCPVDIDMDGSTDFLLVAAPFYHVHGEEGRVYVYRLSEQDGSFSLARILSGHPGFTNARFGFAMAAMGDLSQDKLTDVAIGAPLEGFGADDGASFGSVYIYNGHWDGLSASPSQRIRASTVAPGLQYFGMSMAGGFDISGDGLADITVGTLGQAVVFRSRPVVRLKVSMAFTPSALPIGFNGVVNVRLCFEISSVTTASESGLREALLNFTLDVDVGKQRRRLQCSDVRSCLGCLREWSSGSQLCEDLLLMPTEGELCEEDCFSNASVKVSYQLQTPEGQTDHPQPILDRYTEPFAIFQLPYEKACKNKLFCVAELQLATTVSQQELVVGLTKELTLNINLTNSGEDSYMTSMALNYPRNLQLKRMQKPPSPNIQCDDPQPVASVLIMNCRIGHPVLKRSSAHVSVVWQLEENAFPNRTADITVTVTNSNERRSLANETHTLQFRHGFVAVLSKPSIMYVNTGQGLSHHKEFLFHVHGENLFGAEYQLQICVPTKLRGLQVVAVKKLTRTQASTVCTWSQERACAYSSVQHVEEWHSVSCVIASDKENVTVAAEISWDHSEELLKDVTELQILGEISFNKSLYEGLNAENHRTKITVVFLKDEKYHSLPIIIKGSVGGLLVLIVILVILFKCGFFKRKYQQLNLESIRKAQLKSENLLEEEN
UniProt P26010: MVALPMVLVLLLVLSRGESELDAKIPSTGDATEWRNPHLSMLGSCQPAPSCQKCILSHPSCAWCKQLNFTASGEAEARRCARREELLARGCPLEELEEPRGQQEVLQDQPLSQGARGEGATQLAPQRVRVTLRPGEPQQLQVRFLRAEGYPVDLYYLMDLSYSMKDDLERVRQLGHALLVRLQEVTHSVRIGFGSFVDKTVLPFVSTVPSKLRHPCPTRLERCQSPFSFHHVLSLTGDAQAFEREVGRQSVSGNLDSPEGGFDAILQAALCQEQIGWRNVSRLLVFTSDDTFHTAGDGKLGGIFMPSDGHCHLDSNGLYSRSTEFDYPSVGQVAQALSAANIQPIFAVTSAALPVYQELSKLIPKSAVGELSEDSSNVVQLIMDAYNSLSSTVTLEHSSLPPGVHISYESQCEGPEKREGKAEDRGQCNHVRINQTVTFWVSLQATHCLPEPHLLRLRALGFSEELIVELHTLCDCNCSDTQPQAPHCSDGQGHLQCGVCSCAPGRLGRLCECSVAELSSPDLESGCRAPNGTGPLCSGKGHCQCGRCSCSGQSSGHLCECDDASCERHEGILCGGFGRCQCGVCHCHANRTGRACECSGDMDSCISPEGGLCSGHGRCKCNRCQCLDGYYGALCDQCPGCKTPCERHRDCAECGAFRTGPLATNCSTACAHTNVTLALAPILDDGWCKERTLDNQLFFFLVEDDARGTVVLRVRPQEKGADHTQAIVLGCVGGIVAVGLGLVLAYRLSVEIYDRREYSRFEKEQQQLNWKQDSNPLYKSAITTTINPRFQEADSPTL

Molecular target: alphaEbeta7 on transfected 293 cells (human) (UniProt P38570+P26010)
Test: summary of the cell adhesion inhibition assays

binding: binds
B1: Variant hu504.5 (IgG) (antibody, name in Kabat numbering, V domains shown)
VH: EVQLVESGGGLVQPGGSLRLSCAASGFFITNNYWGWVRQAPGKGLEWVGYISYSGSTSYNPSLKSRFTISRDTSKNTFYLQMNSLRAEDTAVYYCAMTGSSGYFDFWGQGTLVTVSS
VL: DIQMTQSPSSLSASVGDRVTITCRASESVDSLLHWYQQKPGKAPKLLIKYASQSISGVPSRFSGSGSGTDFTLTISSLQPEDFATYYCQQGNSLPNTFGQGTKVEIKR

binding: binds
B2: Variant hu504.32 (IgG) (antibody, V domains shown)
VH: B1 VH
VL: B1 VL with S31D

binding: binds
B3: Variant hu504.16 (IgG) (antibody, name in Kabat numbering, V domains shown)
VH: B1 VH
VL: B1 VL with S31T
